No constants are given. Whether binding was seen depends on the method and setting. Binding seen in cells or lysates may run through a third protein. Tags and fused reporters may be left off the sequences shown.

The target of this experiment is T1, VN-Sph1 (synphilin-1 fused behind the N-terminal fragment of Venus) (human) (UniProt Q9Y6H5).
T1 sequence: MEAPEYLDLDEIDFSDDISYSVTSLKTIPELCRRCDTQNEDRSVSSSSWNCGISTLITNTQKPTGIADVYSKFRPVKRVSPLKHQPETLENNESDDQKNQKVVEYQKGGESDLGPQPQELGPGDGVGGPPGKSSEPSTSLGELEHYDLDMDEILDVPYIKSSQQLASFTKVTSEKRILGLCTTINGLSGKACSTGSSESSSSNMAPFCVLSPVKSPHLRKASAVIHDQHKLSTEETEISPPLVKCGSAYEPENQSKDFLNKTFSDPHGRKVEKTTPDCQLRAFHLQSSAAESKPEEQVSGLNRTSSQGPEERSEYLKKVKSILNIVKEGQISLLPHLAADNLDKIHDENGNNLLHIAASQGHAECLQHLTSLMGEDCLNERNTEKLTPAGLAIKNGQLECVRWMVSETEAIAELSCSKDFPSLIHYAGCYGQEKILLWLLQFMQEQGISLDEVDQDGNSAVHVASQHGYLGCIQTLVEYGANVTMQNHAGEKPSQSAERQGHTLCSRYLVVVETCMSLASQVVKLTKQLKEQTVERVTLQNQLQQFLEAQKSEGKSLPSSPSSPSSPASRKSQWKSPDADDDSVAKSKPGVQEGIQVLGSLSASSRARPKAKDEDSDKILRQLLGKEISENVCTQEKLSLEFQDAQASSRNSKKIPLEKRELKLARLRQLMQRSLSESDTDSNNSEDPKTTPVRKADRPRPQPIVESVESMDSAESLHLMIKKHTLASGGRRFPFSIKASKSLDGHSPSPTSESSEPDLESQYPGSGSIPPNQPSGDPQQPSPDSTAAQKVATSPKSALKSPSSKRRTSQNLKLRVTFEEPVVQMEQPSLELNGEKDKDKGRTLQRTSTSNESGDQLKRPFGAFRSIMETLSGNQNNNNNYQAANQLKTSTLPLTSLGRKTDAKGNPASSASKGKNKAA
In words: split reporter; Venus BiFC in HEK 293 cells co-transfected with equimolar amounts of the VN and VC plasmids; fluorescence seen 24 or 48 h after transfection.

On to “VC alone (C-terminal fragment of Venus) (domain or fragment)”, for which the binding result is “no binding”.
